Measurements as given in paper PMC5504672.
For at least one entry, the source does not settle the construct or the ends of the probe. A weaker result is weaker than the reference pair of the same experiment. Tags and fusion partners may be left off the protein sequences shown.

Molecular target: T1, IolQ-His6 (DegA) (Bacillus subtilis 168) (UniProt P37947)
T1 sequence (looked up, limits assumed): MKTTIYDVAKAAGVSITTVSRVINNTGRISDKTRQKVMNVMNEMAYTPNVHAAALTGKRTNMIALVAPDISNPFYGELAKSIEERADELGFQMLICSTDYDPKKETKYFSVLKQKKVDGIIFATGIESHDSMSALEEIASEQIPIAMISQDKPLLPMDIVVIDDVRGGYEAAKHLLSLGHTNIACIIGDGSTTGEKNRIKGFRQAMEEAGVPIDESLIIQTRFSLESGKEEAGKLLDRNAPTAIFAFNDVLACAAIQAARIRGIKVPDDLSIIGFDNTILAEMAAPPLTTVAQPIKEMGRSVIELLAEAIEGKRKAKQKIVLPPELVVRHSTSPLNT
Experiment: DNase I footprinting
Conditions: protected at higher IolQ concentrations (lower affinity); 10 mM Tris-HCl pH 8.0, 1 mM DTT, 10 mM KCl, 5 mM MgCl2, 10% glycerol, 5 ug/ml poly d(I-C), 50 ug/ml BSA, 37 C, 30 min; recombinant protein; protein details: C-terminal His6 (pET-30a); label: 5'-6-FAM on sense or antisense strand; probe letters rebuilt from the primers and the genome

## GAGCTTGTAGTCAGACATTCTACATCACCGCTCAACACATGAGCCCGCTAATGAGCGGGTTTTTTCATTATGACAGTTGAAGCCAAAAAAACATATTGCGTGTAAACCAAAGGCGGTGTAAAATATAACCATCTTTTGAGAAAGCGCTTGCGCAAAATGGCAGAGCGGATAGAACCGCTGTTTTTTTAGCTGTTAAGAGAAAACGCTTTCTCAAAGCGAGCCCGAAATGAGATAAAGGAGAGGATGGGACGTGGAACATCAAGTAAGATGTGCAGTATTGGGATTAGGAAGGCTCGGTTA (double strand) [iolX promoter 300 bp footprint probe, low affinity region]
  binding result: binds more weakly
